Results deposited as PubChem BioAssay AID686943 (Drosophila RNAi Screening Center, 2013).
Assay: 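Fly genes whose loss alters ERK activation after insulin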 (primary screen). System: Drosophila S2R+ haemocyte-like cells expressing YFP-tagged ERK (Rolled). Knock-down reagent: long dsRNA against Drosophila genes. Conditions: insulin stimulation versus unstimulated cells; dose and duration not given. Detection: 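Per-plate z-scores of phospho-ERK immunostaining normalised to YFP-tagged ERK, measured with and without insulin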. Direction: replicate 1, z-score of dpERK with insulin and replicate 2, z-score of dpERK with insulin: higher = more active ERK per ERK-YFP after insulin.
The deposit covers about 23,000 reagents; below is an unselected part of those with a known target gene and a result. 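Extra replicates exist only for a retested subset of genes; insulin dose and duration not given; both raised and lowered dpERK matter.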 Names joined by + are all predicted targets of the reagent. Not all columns of the deposit are shown. The record does not give: the amount of reagent, the time to read-out.

With knock-down of Ag5r [DRSC19327], the screen gave replicate 1, z-score of dpERK with insulin 0.42; replicate 2, z-score of dpERK with insulin 0.77.
With knock-down of CG13722 [DRSC08331], the record shows replicate 1, z-score of dpERK with insulin 0.48; replicate 2, z-score of dpERK with insulin 0.37.
Knock-down of CG13722 [DRSC21616] resulted in: replicate 1, z-score of dpERK with insulin 0.41; replicate 2, z-score of dpERK with insulin -0.82.
For HIP + HIP-R [DRSC18245], the entry reads replicate 1, z-score of dpERK with insulin 0.07; replicate 2, z-score of dpERK with insulin 0.11.
Against Apc [DRSC14114], the entry reads replicate 1, z-score of dpERK with insulin 0.37; replicate 2, z-score of dpERK with insulin -0.12.
With knock-down of Dtwd2 [DRSC12501], the screen gave replicate 1, z-score of dpERK with insulin -0.04; replicate 2, z-score of dpERK with insulin 0.54.
CG14615 [DRSC20627] scored replicate 1, z-score of dpERK with insulin -0.88; replicate 2, z-score of dpERK with insulin -0.21.
CG12990 [DRSC19510] showed replicate 1, z-score of dpERK with insulin 0.4; replicate 2, z-score of dpERK with insulin 0.5.
gzl [DRSC12517] gave replicate 1, z-score of dpERK with insulin 0.53; replicate 2, z-score of dpERK with insulin 0.04.
Depletion of Vta1 [DRSC08604] came out at: replicate 1, z-score of dpERK with insulin 0.77; replicate 2, z-score of dpERK with insulin -1.69.
After knock-down of Vta1 [DRSC22848], the record shows replicate 1, z-score of dpERK with insulin 0.03; replicate 2, z-score of dpERK with insulin -1.69.
After knock-down of snz [DRSC17969], the screen gave replicate 1, z-score of dpERK with insulin -0.48; replicate 2, z-score of dpERK with insulin -0.19.
After knock-down of CG33552 [DRSC01551], the screen gave replicate 1, z-score of dpERK with insulin 0.11; replicate 2, z-score of dpERK with insulin 0.32.
Silencing of loh [DRSC01122] came out at: replicate 1, z-score of dpERK with insulin -0.65; replicate 2, z-score of dpERK with insulin 0.28.
For loh [DRSC02943], the entry reads replicate 1, z-score of dpERK with insulin 0.87; replicate 2, z-score of dpERK with insulin 0.51.
Against CG13084 [DRSC02188] the deposit lists replicate 1, z-score of dpERK with insulin 0.26; replicate 2, z-score of dpERK with insulin -0.75.
Depletion of TFAM [DRSC15552] came out at: replicate 1, z-score of dpERK with insulin 0.56; replicate 2, z-score of dpERK with insulin 0.21.
CG33506 [DRSC05981] scored replicate 1, z-score of dpERK with insulin 0.52; replicate 2, z-score of dpERK with insulin 1.13.
With knock-down of Rnp4F [DRSC18706], the record shows replicate 1, z-score of dpERK with insulin -0.56; replicate 2, z-score of dpERK with insulin -0.28.
CG8321 [DRSC07148] gave replicate 1, z-score of dpERK with insulin 0.16; replicate 2, z-score of dpERK with insulin 0.83.
PH4alphaPV [DRSC22400] gave replicate 1, z-score of dpERK with insulin 0.17; replicate 2, z-score of dpERK with insulin 0.95.
